# Measured values from patent US20030220521A1, “Renal-selective prodrugs for control of renal sympathetic nerve activity in the treatment of hypertension” (G.D. Searle & Co., priority 1989, published 2003).
# At least one structure is not confirmed: it was looked up by name or label, or the drawing left a doubt.
# Molecular target: T1, dopamine beta-hydroxylase (DBH; EC 1.14.17.1) (Bos taurus, UniProt P15101)
# T1 construct: DBH, purified from bovine adrenals (Sigma); purchased Sigma; host or cells: bovine adrenals (tissue-purified)
# T1 sequence (P15101 1-610): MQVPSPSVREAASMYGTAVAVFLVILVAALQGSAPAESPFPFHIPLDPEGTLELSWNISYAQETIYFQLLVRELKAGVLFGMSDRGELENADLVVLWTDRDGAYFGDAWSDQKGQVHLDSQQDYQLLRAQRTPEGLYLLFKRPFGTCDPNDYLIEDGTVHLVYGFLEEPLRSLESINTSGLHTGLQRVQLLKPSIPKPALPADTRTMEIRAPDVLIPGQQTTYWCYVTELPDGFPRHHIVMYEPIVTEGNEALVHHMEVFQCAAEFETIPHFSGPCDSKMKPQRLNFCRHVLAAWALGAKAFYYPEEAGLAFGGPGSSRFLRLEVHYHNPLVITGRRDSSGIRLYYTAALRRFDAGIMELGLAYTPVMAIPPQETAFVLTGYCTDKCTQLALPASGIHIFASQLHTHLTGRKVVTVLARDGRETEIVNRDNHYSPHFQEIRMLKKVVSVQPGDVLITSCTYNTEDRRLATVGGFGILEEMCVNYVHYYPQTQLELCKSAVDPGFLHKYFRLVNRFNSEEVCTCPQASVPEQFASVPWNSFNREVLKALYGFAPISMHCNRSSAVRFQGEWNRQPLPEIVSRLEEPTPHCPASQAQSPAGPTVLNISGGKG
# Assay: Assay V: in vitro DBH inhibition (norepinephrine production, HPLC)
# Assay type: biochemical, bovine
# Conditions: tested at 20 uM
# Method: In order to characterize the relative potency of the Ex. #859 conjugate and its various potential metabolites as inhibitors of dopamine beta-hydroxylase (DBH; EC 1.14.17.1), the enzyme activity was determined in vitro in the presence of these compounds. DBH, purified from bovine adrenals (Sigma) was incubated at 37° C. in buffer containing 20 mM dopamine as substrate. The reaction was stopped by addition of 0.5 M perchloric acid. The precipitate was removed and the product of the enzyme activity (norepinephrine), contained in the clear supernatant, was analyzed by HPLC. The chromatographic separation used a reversed phase C-18 column run isocratically with 0.2 M ammonium acetate (pH 5.2) as the mobile phase. The amount of norepinephrine produced by the enzyme-substrate mixture was analyzed by measuring the peak intensity (absorbance) at 280 nm for norepinephrine as it was eluted at 4.5 minutes, using a photo-diode array detector. The result of adding either fusaric acid or the Ex. #859 conjugate to the incubate at various concentrations is shown in Table XXIII and FIG. 6. […] Fusaric acid and Ex. #859 and two more possible metabolites (Ex #858 and fusaric acid hydrazide) were tested at 20 uM.
smiles,measurement,value
"CCCCc1ccc(C(=O)NNC(=O)CCC(N)C(=O)O)nc1 [Ex. #858, L-glutamic acid, 5-{[(5-butyl-2-pyridinyl)carbonyl]hydrazide}]",inhibitory effect on dopamine-β-hydroxylase activity,Only fusaric acid had significant inhibitory effects
